Source: the supplement of paper PMC12889115
The other results are listed elsewhere or left out. Values are raw readings; no control value is given beside them.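 In the initial screen, polymyxin B was used at a concentration that permeabilizes Salmonella's outer membrane but not its inner membrane. Maximum growth was set by DMSO wells with or without polymyxin B. Since plates varied, data were ranked per plate, and compounds giving the lowest OD600 advanced as hits.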

Test system: Salmonella enterica serovar Typhimurium SL1344
Experiment: bacterial growth OD600 after 18 h with compound and polymyxin B; higher = more bacterial growth (less inhibition)
Conditions: 50 µM, Mueller-Hinton broth

Compound	bacterial growth OD600 (polymyxin B 0.75 µg/mL)	bacterial growth OD600 (polymyxin B 1 µg/mL)
Cc1nc(N2CCC(NCc3cccc4[nH]ccc34)CC2)nc2ccc(F)cc12	0.821	–
Cc1ccc(F)cc1CNC(=O)c1cc(NC(=O)C2CCCO2)c2c(c1)nc(C1CCC1)n2C (centres undefined)	0.798	–
Cc1ncoc1C(=O)N1CCCC(CCc2ccccc2)C1 (centres undefined)	0.783	–
CN(C(=O)c1n[nH]c(=O)c2ccccc12)C1CCCN(C2Cc3ccccc3C2)C1 (centres undefined)	–	1.23
O=C1CCC(CCC(=O)N2CCCC2c2nc3ccccc3s2)(Cc2cccs2)N1 (centres undefined)	0.812	–
CCN(CC)C(=O)C1CCCN(Cc2nc(-c3cccc(Cl)c3)no2)C1 (centres undefined)	–	1.01
COCc1ccc(C(=O)Nc2ccc(-c3nc(CNC(=O)CCn4nccc4C)c(C)o3)cc2)o1	0.823	–
COc1ccc2c(c1)OC(C)CN(CC(C)Cc1ccc3c(c1)OCO3)C2 (centres undefined)	0.007	–
Cc1nc2ccccc2n1Cc1cc(C(=O)N2CCCC2)no1	–	0.842

Fetched by structure from above (2):
Compound	bacterial growth OD600 (polymyxin B 0.75 µg/mL)	bacterial growth OD600 (polymyxin B 1 µg/mL)
COc1ccc2c(c1)OC(C)CN(CC(C)Cc1ccc3c(c1)OCO3)C2 (centres undefined)	0.007	–
Cc1nc2ccccc2n1Cc1cc(C(=O)N2CCCC2)no1	–	0.842
